Reference: the supplement of paper PMC3334620
In all, about 33,000 sequences were measured (“E-score (-0.5 to 0.5)”: median about -0.015, highest 2% from about 0.3 on). Some of the results follow.

Target: T1, Abf1 (UniProt P14164)
T1 sequence: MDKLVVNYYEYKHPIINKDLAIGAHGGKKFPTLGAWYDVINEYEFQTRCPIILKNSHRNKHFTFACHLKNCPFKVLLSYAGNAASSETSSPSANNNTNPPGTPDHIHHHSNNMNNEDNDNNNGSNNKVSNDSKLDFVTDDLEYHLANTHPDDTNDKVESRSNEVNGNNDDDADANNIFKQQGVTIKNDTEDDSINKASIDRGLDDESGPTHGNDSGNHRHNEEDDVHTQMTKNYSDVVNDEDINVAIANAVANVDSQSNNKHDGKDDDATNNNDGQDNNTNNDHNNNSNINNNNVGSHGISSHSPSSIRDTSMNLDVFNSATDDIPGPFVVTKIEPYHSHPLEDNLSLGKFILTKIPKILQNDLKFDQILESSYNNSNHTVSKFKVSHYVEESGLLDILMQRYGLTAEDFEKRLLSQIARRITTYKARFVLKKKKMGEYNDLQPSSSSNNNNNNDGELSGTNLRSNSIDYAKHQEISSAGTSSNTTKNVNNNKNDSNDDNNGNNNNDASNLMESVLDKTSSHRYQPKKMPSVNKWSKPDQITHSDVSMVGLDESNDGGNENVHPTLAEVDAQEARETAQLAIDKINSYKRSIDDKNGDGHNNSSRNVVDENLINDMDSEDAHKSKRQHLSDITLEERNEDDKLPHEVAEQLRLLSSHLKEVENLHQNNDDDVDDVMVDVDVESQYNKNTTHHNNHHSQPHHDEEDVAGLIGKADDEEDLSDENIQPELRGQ
Experiment: PBM E-score (8-mer binding enrichment) (E-score (-0.5 to 0.5)); higher = stronger / more preferred TF binding
Conditions: protein concentration: 200 nM; construct: GST-full length
Procedure, shortened: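 For each ungapped eight-base word taken together with its reverse complement, the Universal PBM Analysis Suite assigned an E-score. Binding data came from GST-tagged yeast transcription factors, applied at about 100-200 nM, on universal all-10-mer Agilent arrays made double-stranded by primer extension. Fluorescent anti-GST marked bound protein, and scans were normalised with masliner.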

| Sequence | PBM E-score |
| --- | --- |
| CAACTATA | -0.0129 |
| TGAATTAA | 0.227 |
| AGATTGGG | 0.0561 |
| CCTTCACC | -0.156 |
| ACGGGGTG | -0.0176 |
| AAAATTTC | 0.00567 |
| ACGTCAAT | 0.116 |
| CACCGCGA | -0.115 |
| ATGCAGCA | -0.015 |
| CAACGGTG | 0.0386 |
| AAAAAAAG | 0.0622 |
| AAAACACA | 0.179 |
| CCTCGGCG | 0.0652 |
| AACGGTCG | 0.203 |
| AAGTCGAC | 0.058 |
| AGGAGCCC | -0.145 |
| TGGGCTAA | -0.143 |
| AAATGCTC | -0.0929 |
| CTTCTTAA | 0.0451 |
| AGGGCGCG | -0.299 |
| AGCAATTC | 0.0806 |
| GATGAAAA | 0.00307 |

| Sequence | PBM E-score |
| --- | --- |
| CTTCAACA | 0.0302 |
| CCTCAGTC | -0.218 |
| CCACCATC | -0.217 |
| CGCCCGAA | -0.0642 |
| AAACTCAG | -0.091 |
| ATTCCATA | 0.155 |
| AGTCGCAG | -0.0448 |
| TCCTACAA | -0.102 |
| GCCCCGTA | 0.222 |
| CAACCCAA | -0.117 |
| GGCCACTA | -0.188 |
| TGCCCACA | -0.149 |
| GGTTGGAA | -0.166 |
| ACCAGGCT | -0.203 |
| ACGTTGTC | 0.0425 |
| CGAGACAG | 0.0375 |
| ATGAGTAG | -0.0168 |
| AAGCACGC | 0.0205 |
| CATGAGCG | 0.141 |
| GCCCTAGA | -0.077 |
| GACCTATC | -0.00351 |
| AATAAACT | 0.0151 |

| Sequence | PBM E-score |
| --- | --- |
| GAAAGTTA | 0.00502 |
| ATGGTCCG | -0.00383 |
| CCCCCCGA | -0.149 |
| GTCCTGCA | -0.133 |
| ACATTTCG | 0.0127 |
| ATGCGGGC | -0.12 |
| CGGTGTTA | -0.213 |
| ACATCAGT | -0.0164 |
| CAAGAAAC | -0.137 |
| ATGCACGC | -0.131 |
| CGTACAAC | 0.276 |
| AAAGCAAA | 0.118 |
| CACCCATC | -0.0921 |
| GACCGTGA | 0.201 |
| AAACAGGT | -0.0656 |
| CAATTAAG | 0.134 |
| CTGTGGCC | -0.212 |
| AGCTGTTC | -0.271 |
| AGCTACCA | -0.127 |
| AATCTCCC | -0.156 |
| AAGTTCAA | -0.0539 |
| GAGCCAAA | -0.124 |

Individual results from the results shown.
AGCTGTTC | PBM E-score: -0.271
GACCGTGA | PBM E-score: 0.201
CGGTGTTA | PBM E-score: -0.213
GAGCCAAA | PBM E-score: -0.124

(next part)

| Sequence | PBM E-score |
| --- | --- |
| TCAACTCA | -0.00687 |
| AATCAGGT | 0.0271 |
| GATTTGCC | 0.0759 |
| CTATAAAG | -0.102 |
| AAACCTAG | -0.0352 |
| GCAGCCCA | -0.208 |
| ATATAACC | 0.0721 |
| GCCGCACA | -0.0257 |
| CCCTTTGA | -0.125 |
| ATGCAAGG | -0.192 |
| AGTTTGGA | 0.0269 |
| AAAATATA | 0.177 |
| GCCAGGAC | -0.212 |
| GGAAGAAA | -0.198 |
| AAGAAGGG | -0.205 |
| TAGGGACA | -0.0916 |
| AGCGTGCG | 0.046 |
| CCATATAA | 0.147 |
| CACAACCC | -0.194 |
| GAAGAGAC | 0.00676 |
